According to PubChem BioAssay AID1487 (National Center for Advancing Translational Sciences (NCATS), 2009):
This is one part of the list. Further columns of the screen follow, without active or inactive calls. The list favours compounds with an active or inconclusive main result. Potencies come from curve fits of mixed quality, noted in brackets.

Assay: qHTS Assay for Modulators of Lamin A Splicing
Conditions: HeLa LMNA splicing GFP/RFP minigene ratio, 48 h
Summary of the method: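 S3 HeLa stable clones carrying a lamin A-EGFP splicing minigene plus DsRed2 were seeded at 600 cells/well in Opti-MEM with 2% FBS, pin-dosed and incubated 48 h at 37°C. Acumen cytometry (488 nm) gave the GFP/RFP total-intensity ratio.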

[1] = measured here: RFP viability control channel
[2] = measured here: GFP splicing reporter channel

SMILES	AC50 [1]	AC50 [2]
Cc1cccc(-c2cc(C(=O)N3CCCc4ccccc43)c3ccccc3n2)c1	12.6 µM [rising, single point]	
CCN(Cc1ccccc1)S(=O)(=O)c1ccc(-c2coc(C)n2)cc1	0.178 µM [falling, full curve, poor fit]	0.282 µM [falling, full curve, poor fit]
COc1ccc(C(=O)N/N=C/c2cn[nH]c2-c2ccc(OC)cc2OC)cc1	35.5 µM [rising, single point]	
COc1ccc(CN2CCN(c3ccc(F)cc3)CC2)c(OC)c1OC	31.6 µM [rising, single point]	
CCOC(=O)c1sc(NC(=O)CSc2nccc(C)n2)nc1C		35.5 µM [falling, single point]
C(=C\c1ccc2ccccc2n1)/c1ccccc1	35.5 µM [falling, single point]	20 µM [falling, partial curve, poor fit]
O=c1cc(CN2CCN(S(=O)(=O)/C=C/c3ccccc3)CC2)c2ccc(O)cc2o1	14.1 µM [rising, partial curve]	
N#CCC(=O)Nc1sc2c(c1C(N)=O)CCCC2	35.5 µM [rising, single point]	35.5 µM [rising, single point]
CCOC(=O)c1c(-c2ccccc2)csc1NC(=O)CSc1ccccc1	35.5 µM [rising, single point]	31.6 µM [rising, single point]
COc1cc(OC)c(OC)cc1CN1CCCC(C(=O)c2ccccc2SC)C1 (stereo unspecified)		28.2 µM [falling, partial curve]
Cn1c(CN2CCN(c3ccc(Cl)cc3)CC2)nc2ccccc21	12.6 µM [rising, partial curve]	11.2 µM [rising, partial curve]
O=C(CSCc1c(F)cccc1Cl)NCc1ccncc1		0.00708 µM [falling, full curve, poor fit]
COC(=O)CC(NC(=O)c1cccs1)c1ccc(OC)c(OC)c1 (stereo unspecified)	0.501 µM [rising, full curve]	1.26 µM [rising, full curve]
O=C(Cn1cnc2ccccc21)N/N=C/c1ccccc1		50.1 µM [rising, partial curve, poor fit]
CCN(c1ccccc1)S(=O)(=O)c1ccc(C(=O)Nc2nnc(C3CC3)o2)cc1		6.31 µM [falling, single point]
C[C@@]12CC[C@@H]3c4ccc(O)cc4CC[C@H]3[C@H]1C[C@@H](O)[C@H]2O	0.224 µM [falling, full curve]	0.282 µM [falling, full curve]
COc1cccc2c1C(=O)C=C(C)C2=O	22.4 µM [falling, single point]	35.5 µM [falling, single point]
COc1ccc2nc(Nc3nc(-c4cc5ccccc5oc4=O)cs3)sc2c1	3.55 µM [rising, single point]	

SMILES	AC50 [1]	AC50 [2]
CCCOc1ccc(-c2nc(C#N)c(N3CCN(C)CC3)o2)cc1	35.5 µM [rising, single point]	35.5 µM [rising, single point]
c1cc(-c2ccncc2)ccn1	0.0562 µM [falling, full curve, poor fit]	
CN(C)c1ccc(CNC(=O)Cn2c(=O)oc3cc(S(=O)(=O)N4CCCCCC4)ccc32)cc1		0.158 µM [rising, full curve, poor fit]
CC(=O)Nc1ccc(OS(=O)(=O)c2ccc([N+](=O)[O-])cc2)cc1		7.94 µM [falling, partial curve, poor fit]
CCOc1ccccc1NC(=O)Cn1[nH]c(=O)c2ccccc2c1=O	20 µM [rising, partial curve, poor fit]	14.1 µM [rising, partial curve, poor fit]
C/C(=N\OCC(=O)Nc1ccccc1C(C)(C)C)c1ccc2c(c1)OCCO2	14.1 µM [rising, partial curve, poor fit]	
CCNc1nc(NC(N)=S)nc(NC(C)(C)C)n1	0.562 µM [falling, full curve, poor fit]	12.6 µM [falling, partial curve]
Cc1cccc(COc2ncnc3nc[nH]c23)c1	11.2 µM [rising, partial curve]	6.31 µM [rising, full curve]
O=C(N/N=C\c1cccc([N+](=O)[O-])c1O)C1COc2ccccc2O1 (stereo unspecified)	35.5 µM [rising, single point]	
CCc1ccc(N2CC(C(=O)Nc3ccc(C)c(S(=O)(=O)N4CCOCC4)c3)CC2=O)cc1 (stereo unspecified)	15.8 µM [rising, single point]	
CCOC(=O)c1cnc(SCc2cccc3ccccc23)nc1N	11.2 µM [rising, single point]	10 µM [rising, partial curve]
Cc1ccc(-c2nn(-c3ccccc3)cc2NC(=O)CCl)cc1	0.112 µM [falling, full curve, poor fit]	1 µM [falling, full curve]
N=c1c2c(-c3ccccc3)c(-c3ccccc3)n(Cc3ccco3)c2ncn1CCO	11.2 µM [rising, partial curve]	35.5 µM [rising, single point]
CC1=CC(=C(C#N)C#N)C=C(C)N1CCC(C)C		0.0251 µM [rising, full curve, poor fit]
Cc1c(NC(=O)OCCNC(=O)COc2ccc(Cl)cc2Cl)sc(=S)n1C	31.6 µM [rising, single point]	
COc1ccc(/C=C/C(=O)Nc2cccc(C(C)=O)c2)cc1	11.2 µM [rising, single point]	
CC(=O)/C(=N\Nc1ccc(Cl)cc1)Sc1nnc(-c2ccccc2)n1-c1ccccc1	25.1 µM [rising, single point]	
O=C(CN(c1ccc(F)cc1)S(=O)(=O)c1ccccc1)NCCSC1CCCCC1	17.8 µM [rising, single point]	

Quoted at random: 2 records from the list.
SMILES	AC50 [1]	AC50 [2]
Cc1ccc(-c2nn(-c3ccccc3)cc2NC(=O)CCl)cc1	0.112 µM [falling, full curve, poor fit]	1 µM [falling, full curve]
Cc1cccc(COc2ncnc3nc[nH]c23)c1	11.2 µM [rising, partial curve]	6.31 µM [rising, full curve]
